PubChem BioAssay AID504774 – Drosophila RNAi Screening Center, 2011
Purpose: 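Genes required for cells to withstand methyl methanesulphonate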 (primary screen). System: Drosophila Kc167 cells. Reagent: long dsRNA against Drosophila genes, about 0.25 µg dsRNA per well. Time to read-out: about 6 days: 3 days knock-down, then 3 days with or without MMS. Conditions: methyl methanesulphonate 0.004% (w/v) for 3 days after knock-down. Measurement: 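Viability in wells given MMS, read as ATP luminescence, normalised by quantiles plate by plate and averaged across replicates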. Direction: mean viability with MMS and viability with MMS: higher = more surviving cells after MMS.
The screen tested about 23,000 reagents; below is an unselected part of those with a known target gene and a result. 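Values are quantile-normalised luminescence on an arbitrary scale; higher means more cells surviving MMS.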 Reagents against one gene are numbered here. Names joined by + are all predicted targets of the reagent. Further read-outs or replicates are left out here.

Depletion of ppk28 came out at: mean viability with MMS 3.52e6; viability with MMS, replicate 1 = 3.96e6.
After knock-down of CG13102, the record shows mean viability with MMS 3.80e6; viability with MMS, replicate 1 = 4.66e6.
Depletion of Nurf-38 gave: mean viability with MMS 3.39e6; viability with MMS, replicate 1 = 3.86e6.
CG1236 gave mean viability with MMS 3.58e6; viability with MMS, replicate 1 = 3.98e6.
Silencing of boca gave: mean viability with MMS 3.49e6; viability with MMS, replicate 1 = 3.99e6.
After knock-down of CG34178 + CG34177, the record shows mean viability with MMS 3.54e6; viability with MMS, replicate 1 = 3.97e6.
For Ntmt, the entry reads mean viability with MMS 3.43e6; viability with MMS, replicate 1 = 3.86e6.
CG6652 scored mean viability with MMS 3.70e6; viability with MMS, replicate 1 = 4.16e6.
Silencing of CG16736 came out at: mean viability with MMS 3.45e6; viability with MMS, replicate 1 = 3.89e6.
Silencing of Gbp1 gave: mean viability with MMS 3.54e6; viability with MMS, replicate 1 = 4.08e6.
TfIIA-S scored mean viability with MMS 3.65e6; viability with MMS, replicate 1 = 4.08e6.
With knock-down of Jon99Ciii, the screen gave mean viability with MMS 3.28e6; viability with MMS, replicate 1 = 3.63e6.
After knock-down of CG7460 the results were mean viability with MMS 3.55e6; viability with MMS, replicate 1 = 4.04e6.
Adgf-E showed mean viability with MMS 3.65e6; viability with MMS, replicate 1 = 4.30e6.
Knock-down of Caf1-105 came out at: mean viability with MMS 3.41e6; viability with MMS, replicate 1 = 3.90e6.
Depletion of CG5290 resulted in: mean viability with MMS 3.56e6; viability with MMS, replicate 1 = 4.07e6.
CG33007 (retired record) showed mean viability with MMS 3.48e6; viability with MMS, replicate 1 = 4.02e6.
Against Sec6, the values are mean viability with MMS 3.30e6; viability with MMS, replicate 1 = 3.78e6.
After knock-down of Cpr67Fa2 the results were mean viability with MMS 3.71e6; viability with MMS, replicate 1 = 4.15e6.
Lrpprc2 showed mean viability with MMS 3.49e6; viability with MMS, replicate 1 = 4.04e6.
With knock-down of Jon44E the results were mean viability with MMS 3.38e6; viability with MMS, replicate 1 = 3.84e6.
Against DIP1 the deposit lists mean viability with MMS 3.55e6; viability with MMS, replicate 1 = 4.04e6.
Depletion of CG15263 came out at: mean viability with MMS 3.57e6; viability with MMS, replicate 1 = 3.83e6.

Only “viability with MMS, replicate 1”, for 6 of the entries above:
Caf1-105 = 3.90e6
CG5290 = 4.07e6
CG33007 (retired record) = 4.02e6
Sec6 = 3.78e6
Cpr67Fa2 = 4.15e6
Lrpprc2 = 4.04e6

Further entries:
After knock-down of PheRS-m, the record shows mean viability with MMS 3.67e6; viability with MMS, replicate 1 = 4.21e6.
With knock-down of Muc26B, the screen gave mean viability with MMS 3.72e6; viability with MMS, replicate 1 = 3.99e6.
Depletion of CG33464 (retired record) resulted in: mean viability with MMS 3.55e6; viability with MMS, replicate 1 = 4.04e6.
Silencing of Picot resulted in: mean viability with MMS 3.51e6; viability with MMS, replicate 1 = 3.96e6.
With knock-down of comm2 #1 the results were mean viability with MMS 3.26e6; viability with MMS, replicate 1 = 3.73e6.
Depletion of comm2 #2 resulted in: mean viability with MMS 3.70e6; viability with MMS, replicate 1 = 4.17e6.
Silencing of CG7295 came out at: mean viability with MMS 3.46e6; viability with MMS, replicate 1 = 3.90e6.
Depletion of asRNA:CR42743 + CG34162 came out at: mean viability with MMS 3.56e6; viability with MMS, replicate 1 = 4.07e6.
Against CG13721, the values are mean viability with MMS 3.81e6; viability with MMS, replicate 1 = 4.33e6.
Against Uros2, the values are mean viability with MMS 3.53e6; viability with MMS, replicate 1 = 4.08e6.
CG3726 #1 gave mean viability with MMS 3.55e6; viability with MMS, replicate 1 = 3.96e6.
With knock-down of CG3726 #2 the results were mean viability with MMS 3.49e6; viability with MMS, replicate 1 = 4.05e6.
